In patent US20180186796A1, “COMPOUNDS AND USES THEREOF” (LEAD DISCOVERY SIENA S.R.L., priority 2014, published 2018):
For at least one compound, name, drawing or mass did not settle the structure.

Test system: SH-SY5Y neuroblastoma cells
Assay: SH-SY5Y xenograft mouse model
Format: in vivo, mice
Conditions: 50 mg/kg
Protocol: Male CD1 nude mice (Charles River, Milan, Italy) were maintained under the guidelines established by the inventors' Institution (University of L'Aquila, Medical School and Science and Technology School Board Regulations, complying with the Italian government regulation n. 116 Jan. 27 1992 for the use of laboratory animals). Before any invasive manipulation, mice were anesthetized with a mixture of ketamine (25 mg/mL)/xylazine (5 mg/mL). Tumor grafts were obtained by injecting s.c. 1×10^6 SH-SY5Y cells in 100 μL of 12 mg/mL Matrigel (Becton Dickinson, Franklin Lakes, N.J., USA). Tumor growth was monitored daily by measuring the average tumor diameter. The tumor volume was expressed in mm^3 according to the formula 4/3πr^3.

Cc1nc(Nc2ncc(C(=O)Nc3c(C)cccc3Cl)s2)cc(N2CCN(CCO)CC2)n1 [Dasatinib, reference compound]
tumour growth inhibition: very similar inhibitory trend
